Reference: article doi:10.1101/2022.10.05.510992
Results are given in words; binding and its absence hold for the method and conditions named. Binding seen in cells or lysates may run through a third protein. Some binding calls cover weakened binding; strength is not graded here.

The chains behind the UniProt entries cited, without tags or fusion partners.
UniProt Q62696: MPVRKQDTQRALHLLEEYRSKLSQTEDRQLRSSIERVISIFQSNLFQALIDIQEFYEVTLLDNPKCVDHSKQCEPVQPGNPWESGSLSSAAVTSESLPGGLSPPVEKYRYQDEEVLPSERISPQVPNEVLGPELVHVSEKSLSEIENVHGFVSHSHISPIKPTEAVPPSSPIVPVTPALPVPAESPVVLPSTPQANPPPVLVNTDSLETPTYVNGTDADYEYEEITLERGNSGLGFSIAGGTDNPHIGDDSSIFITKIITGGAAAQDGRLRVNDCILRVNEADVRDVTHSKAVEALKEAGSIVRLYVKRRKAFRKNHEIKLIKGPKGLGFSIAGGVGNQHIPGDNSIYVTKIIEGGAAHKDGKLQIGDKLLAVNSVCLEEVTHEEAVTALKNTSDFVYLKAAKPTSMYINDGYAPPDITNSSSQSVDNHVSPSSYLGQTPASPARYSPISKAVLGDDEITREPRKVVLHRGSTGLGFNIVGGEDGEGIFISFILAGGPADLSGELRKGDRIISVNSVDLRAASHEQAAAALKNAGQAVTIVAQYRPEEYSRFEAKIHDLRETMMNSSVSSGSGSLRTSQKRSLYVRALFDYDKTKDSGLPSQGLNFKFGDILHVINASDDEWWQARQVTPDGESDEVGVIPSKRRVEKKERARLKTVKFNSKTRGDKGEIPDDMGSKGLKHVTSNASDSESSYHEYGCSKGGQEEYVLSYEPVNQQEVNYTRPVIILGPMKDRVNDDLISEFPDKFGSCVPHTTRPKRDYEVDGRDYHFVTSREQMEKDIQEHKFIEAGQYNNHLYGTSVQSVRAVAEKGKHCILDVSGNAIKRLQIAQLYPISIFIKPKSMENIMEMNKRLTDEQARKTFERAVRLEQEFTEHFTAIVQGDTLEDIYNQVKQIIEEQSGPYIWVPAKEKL
UniProt Q3SXY8: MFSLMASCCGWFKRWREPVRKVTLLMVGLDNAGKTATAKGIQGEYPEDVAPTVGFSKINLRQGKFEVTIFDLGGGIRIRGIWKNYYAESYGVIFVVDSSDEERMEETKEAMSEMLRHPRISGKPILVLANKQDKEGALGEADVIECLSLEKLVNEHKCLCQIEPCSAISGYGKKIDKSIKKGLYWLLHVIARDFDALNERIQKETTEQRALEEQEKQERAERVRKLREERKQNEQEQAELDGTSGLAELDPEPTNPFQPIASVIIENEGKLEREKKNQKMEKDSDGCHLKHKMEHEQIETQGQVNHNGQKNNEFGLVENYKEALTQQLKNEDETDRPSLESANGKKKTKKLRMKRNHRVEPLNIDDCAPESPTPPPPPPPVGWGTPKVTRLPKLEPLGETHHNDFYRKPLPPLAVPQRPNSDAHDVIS
UniProt P60953: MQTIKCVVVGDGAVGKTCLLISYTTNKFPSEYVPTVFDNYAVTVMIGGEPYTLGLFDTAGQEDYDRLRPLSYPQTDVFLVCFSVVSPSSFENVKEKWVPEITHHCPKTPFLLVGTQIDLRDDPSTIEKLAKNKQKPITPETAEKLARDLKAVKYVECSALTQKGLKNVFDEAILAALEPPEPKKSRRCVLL
UniProt Q15154: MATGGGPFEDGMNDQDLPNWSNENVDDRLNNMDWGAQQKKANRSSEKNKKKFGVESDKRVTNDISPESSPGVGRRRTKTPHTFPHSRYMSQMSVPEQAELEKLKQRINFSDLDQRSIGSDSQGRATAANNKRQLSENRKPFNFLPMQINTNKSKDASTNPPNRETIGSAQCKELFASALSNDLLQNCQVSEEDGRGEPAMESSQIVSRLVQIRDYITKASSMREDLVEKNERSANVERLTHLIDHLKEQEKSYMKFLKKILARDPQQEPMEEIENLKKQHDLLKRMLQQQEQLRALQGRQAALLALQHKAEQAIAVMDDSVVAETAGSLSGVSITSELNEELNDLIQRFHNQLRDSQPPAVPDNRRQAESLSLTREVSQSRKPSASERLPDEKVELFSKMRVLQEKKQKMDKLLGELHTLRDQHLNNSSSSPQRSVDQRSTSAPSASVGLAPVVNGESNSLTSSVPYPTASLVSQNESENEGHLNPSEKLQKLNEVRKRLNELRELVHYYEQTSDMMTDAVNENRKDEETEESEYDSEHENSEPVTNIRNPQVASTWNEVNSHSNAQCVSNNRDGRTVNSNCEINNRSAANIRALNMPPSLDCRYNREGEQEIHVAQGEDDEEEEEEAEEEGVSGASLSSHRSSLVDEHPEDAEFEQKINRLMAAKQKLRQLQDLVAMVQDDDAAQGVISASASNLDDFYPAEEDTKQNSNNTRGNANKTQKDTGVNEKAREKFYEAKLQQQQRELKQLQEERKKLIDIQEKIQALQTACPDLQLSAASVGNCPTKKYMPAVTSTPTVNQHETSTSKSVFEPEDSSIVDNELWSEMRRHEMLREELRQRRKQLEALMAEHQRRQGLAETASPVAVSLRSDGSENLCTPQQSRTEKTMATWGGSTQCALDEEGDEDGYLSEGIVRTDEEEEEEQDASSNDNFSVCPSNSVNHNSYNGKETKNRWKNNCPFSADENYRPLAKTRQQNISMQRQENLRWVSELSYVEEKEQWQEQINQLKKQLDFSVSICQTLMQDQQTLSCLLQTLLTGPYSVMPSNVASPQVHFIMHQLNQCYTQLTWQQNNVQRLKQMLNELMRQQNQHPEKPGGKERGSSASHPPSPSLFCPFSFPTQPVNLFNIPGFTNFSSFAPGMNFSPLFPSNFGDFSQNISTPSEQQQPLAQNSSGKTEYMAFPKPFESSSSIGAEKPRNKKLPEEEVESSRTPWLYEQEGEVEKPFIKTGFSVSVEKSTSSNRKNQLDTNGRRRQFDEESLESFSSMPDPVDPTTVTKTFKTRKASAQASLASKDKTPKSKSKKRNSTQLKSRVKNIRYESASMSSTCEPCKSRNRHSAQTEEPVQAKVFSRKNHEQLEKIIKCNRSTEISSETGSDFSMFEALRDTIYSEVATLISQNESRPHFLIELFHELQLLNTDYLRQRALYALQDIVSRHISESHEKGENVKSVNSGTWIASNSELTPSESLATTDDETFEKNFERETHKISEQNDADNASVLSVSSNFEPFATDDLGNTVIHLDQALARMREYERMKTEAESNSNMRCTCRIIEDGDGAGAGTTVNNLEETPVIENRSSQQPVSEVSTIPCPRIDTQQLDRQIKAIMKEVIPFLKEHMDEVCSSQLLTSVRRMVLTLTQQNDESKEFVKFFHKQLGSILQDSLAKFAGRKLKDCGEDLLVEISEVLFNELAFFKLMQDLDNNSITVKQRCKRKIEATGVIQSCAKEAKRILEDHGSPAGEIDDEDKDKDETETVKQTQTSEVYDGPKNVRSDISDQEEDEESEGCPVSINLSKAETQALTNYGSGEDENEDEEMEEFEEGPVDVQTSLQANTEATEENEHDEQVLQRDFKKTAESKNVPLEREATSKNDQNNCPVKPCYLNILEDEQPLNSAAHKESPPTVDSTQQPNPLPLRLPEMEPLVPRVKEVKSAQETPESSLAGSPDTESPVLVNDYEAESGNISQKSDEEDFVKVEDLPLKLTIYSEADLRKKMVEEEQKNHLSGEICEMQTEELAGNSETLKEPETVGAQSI

Key:
[1] = target: T1, Sodium-bicarbonate co-transporter NBCn1 (SLC4A7), native in human cells (human (endogenous in MCF-7 and HEK293T)) (UniProt Q9Y6M7); test: co-IP
T1 sequence: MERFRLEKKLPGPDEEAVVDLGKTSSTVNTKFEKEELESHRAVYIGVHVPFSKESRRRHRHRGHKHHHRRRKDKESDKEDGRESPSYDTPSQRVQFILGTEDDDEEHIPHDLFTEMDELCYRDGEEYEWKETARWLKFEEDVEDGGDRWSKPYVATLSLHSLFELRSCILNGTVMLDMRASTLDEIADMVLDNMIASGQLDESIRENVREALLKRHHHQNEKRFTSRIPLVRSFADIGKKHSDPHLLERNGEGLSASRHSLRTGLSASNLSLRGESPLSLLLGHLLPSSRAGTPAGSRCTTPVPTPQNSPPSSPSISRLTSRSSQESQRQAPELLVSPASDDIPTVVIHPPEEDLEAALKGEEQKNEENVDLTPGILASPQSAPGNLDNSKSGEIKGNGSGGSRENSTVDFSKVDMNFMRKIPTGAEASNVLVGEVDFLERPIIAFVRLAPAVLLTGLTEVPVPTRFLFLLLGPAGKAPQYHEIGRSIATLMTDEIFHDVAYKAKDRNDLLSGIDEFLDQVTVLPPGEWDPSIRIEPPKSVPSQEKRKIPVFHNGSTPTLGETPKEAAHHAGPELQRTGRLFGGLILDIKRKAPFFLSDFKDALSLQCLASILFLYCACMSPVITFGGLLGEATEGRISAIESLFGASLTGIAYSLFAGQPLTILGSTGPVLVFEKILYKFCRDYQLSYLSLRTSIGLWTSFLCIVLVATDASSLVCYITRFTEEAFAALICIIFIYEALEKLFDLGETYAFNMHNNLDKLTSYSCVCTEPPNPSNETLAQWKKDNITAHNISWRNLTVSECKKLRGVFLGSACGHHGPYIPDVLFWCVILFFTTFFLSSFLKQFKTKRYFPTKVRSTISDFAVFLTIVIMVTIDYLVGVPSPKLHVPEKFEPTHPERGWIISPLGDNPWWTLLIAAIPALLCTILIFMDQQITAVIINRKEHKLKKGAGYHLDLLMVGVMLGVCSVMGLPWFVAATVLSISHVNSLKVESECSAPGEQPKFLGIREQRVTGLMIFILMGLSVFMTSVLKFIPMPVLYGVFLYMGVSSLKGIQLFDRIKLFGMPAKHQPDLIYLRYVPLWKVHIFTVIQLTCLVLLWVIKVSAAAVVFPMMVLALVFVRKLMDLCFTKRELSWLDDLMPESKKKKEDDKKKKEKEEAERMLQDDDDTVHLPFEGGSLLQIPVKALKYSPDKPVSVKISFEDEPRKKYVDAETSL

[2] = target: T1, Sodium-bicarbonate co-transporter NBCn1 (SLC4A7), native in human cells (human (endogenous in MCF-7 and HEK293T)); test: proximity ligation
[3] = target: T2, NBCn1 (co-IP with IFT27, cells not shown) (UniProt Q9Y6M7); test: co-IP
T2 sequence: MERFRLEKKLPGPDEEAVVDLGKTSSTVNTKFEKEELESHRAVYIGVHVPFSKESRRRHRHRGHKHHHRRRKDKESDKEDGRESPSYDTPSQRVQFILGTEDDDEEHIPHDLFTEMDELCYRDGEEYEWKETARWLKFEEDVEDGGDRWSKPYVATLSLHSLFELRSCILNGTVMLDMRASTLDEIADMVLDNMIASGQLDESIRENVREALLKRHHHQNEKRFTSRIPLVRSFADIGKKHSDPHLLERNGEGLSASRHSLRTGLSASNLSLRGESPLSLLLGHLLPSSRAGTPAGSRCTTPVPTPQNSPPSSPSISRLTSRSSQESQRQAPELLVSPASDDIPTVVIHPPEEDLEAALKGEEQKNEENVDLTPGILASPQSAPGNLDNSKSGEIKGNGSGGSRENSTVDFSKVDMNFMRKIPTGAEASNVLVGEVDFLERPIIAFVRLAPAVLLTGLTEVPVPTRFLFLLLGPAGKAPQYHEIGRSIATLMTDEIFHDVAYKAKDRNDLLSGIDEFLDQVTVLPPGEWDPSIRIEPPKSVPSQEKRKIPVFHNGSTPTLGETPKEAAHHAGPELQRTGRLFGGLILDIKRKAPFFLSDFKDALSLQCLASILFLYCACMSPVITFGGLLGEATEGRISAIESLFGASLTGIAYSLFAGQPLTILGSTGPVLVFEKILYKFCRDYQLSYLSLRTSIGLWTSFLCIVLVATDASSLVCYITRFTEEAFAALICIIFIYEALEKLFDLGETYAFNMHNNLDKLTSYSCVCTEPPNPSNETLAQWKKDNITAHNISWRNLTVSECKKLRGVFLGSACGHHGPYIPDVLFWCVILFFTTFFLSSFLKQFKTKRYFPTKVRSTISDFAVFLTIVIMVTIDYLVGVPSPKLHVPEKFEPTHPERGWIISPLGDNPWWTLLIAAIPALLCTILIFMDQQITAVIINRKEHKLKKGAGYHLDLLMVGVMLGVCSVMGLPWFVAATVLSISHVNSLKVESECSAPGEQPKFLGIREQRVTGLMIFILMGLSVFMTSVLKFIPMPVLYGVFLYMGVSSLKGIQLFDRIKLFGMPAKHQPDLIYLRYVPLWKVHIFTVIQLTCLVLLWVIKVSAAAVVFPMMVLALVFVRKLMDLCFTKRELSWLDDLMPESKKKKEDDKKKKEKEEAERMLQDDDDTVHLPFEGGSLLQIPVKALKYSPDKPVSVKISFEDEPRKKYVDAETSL

DLG1-GFP = DLG1-GFP (UniProt Q62696); test: co-IP

In the case of “Arl13B, native in MCF-7 cells (from UniProt Q3SXY8 1-428)”, the binding [1] is reported as “binds”.

In the case of “Cdc42, native in MCF-7 cells (from UniProt P60953 1-191)”, the binding [2] is reported as “binds”.

For “Pericentriolar material-1 (PCM1), native in MCF-7 cells (from UniProt Q15154 1-2024)”, the binding [1] was “binds”.

B1: IFT27 (co-IP with NBCn1, cells not shown) (protein, UniProt Q9BW83 1-186)
chain: MVKLAAKCILAGDPAVGKTALAQIFRSDGAHFQKSYTLTTGMDLVVKTVPVPDTGDSVELFIFDSAGKELFSEMLDKLWESPNVLCLVYDVTNEESFNNCSKWLEKARSQAPGISLPGVLVGNKTDLAGRRAVDSAEARAWALGQGLECFETSVKEMENFEAPFHCLAKQFHQLYREKVEVFRALA
For B1, the binding [3] was “binds”.

B2: Sodium-bicarbonate co-transporter NBCn1 (SLC4A7), native in human cells (protein, UniProt Q9Y6M7 1-1214)
chain: MERFRLEKKLPGPDEEAVVDLGKTSSTVNTKFEKEELESHRAVYIGVHVPFSKESRRRHRHRGHKHHHRRRKDKESDKEDGRESPSYDTPSQRVQFILGTEDDDEEHIPHDLFTEMDELCYRDGEEYEWKETARWLKFEEDVEDGGDRWSKPYVATLSLHSLFELRSCILNGTVMLDMRASTLDEIADMVLDNMIASGQLDESIRENVREALLKRHHHQNEKRFTSRIPLVRSFADIGKKHSDPHLLERNGEGLSASRHSLRTGLSASNLSLRGESPLSLLLGHLLPSSRAGTPAGSRCTTPVPTPQNSPPSSPSISRLTSRSSQESQRQAPELLVSPASDDIPTVVIHPPEEDLEAALKGEEQKNEENVDLTPGILASPQSAPGNLDNSKSGEIKGNGSGGSRENSTVDFSKVDMNFMRKIPTGAEASNVLVGEVDFLERPIIAFVRLAPAVLLTGLTEVPVPTRFLFLLLGPAGKAPQYHEIGRSIATLMTDEIFHDVAYKAKDRNDLLSGIDEFLDQVTVLPPGEWDPSIRIEPPKSVPSQEKRKIPVFHNGSTPTLGETPKEAAHHAGPELQRTGRLFGGLILDIKRKAPFFLSDFKDALSLQCLASILFLYCACMSPVITFGGLLGEATEGRISAIESLFGASLTGIAYSLFAGQPLTILGSTGPVLVFEKILYKFCRDYQLSYLSLRTSIGLWTSFLCIVLVATDASSLVCYITRFTEEAFAALICIIFIYEALEKLFDLGETYAFNMHNNLDKLTSYSCVCTEPPNPSNETLAQWKKDNITAHNISWRNLTVSECKKLRGVFLGSACGHHGPYIPDVLFWCVILFFTTFFLSSFLKQFKTKRYFPTKVRSTISDFAVFLTIVIMVTIDYLVGVPSPKLHVPEKFEPTHPERGWIISPLGDNPWWTLLIAAIPALLCTILIFMDQQITAVIINRKEHKLKKGAGYHLDLLMVGVMLGVCSVMGLPWFVAATVLSISHVNSLKVESECSAPGEQPKFLGIREQRVTGLMIFILMGLSVFMTSVLKFIPMPVLYGVFLYMGVSSLKGIQLFDRIKLFGMPAKHQPDLIYLRYVPLWKVHIFTVIQLTCLVLLWVIKVSAAAVVFPMMVLALVFVRKLMDLCFTKRELSWLDDLMPESKKKKEDDKKKKEKEEAERMLQDDDDTVHLPFEGGSLLQIPVKALKYSPDKPVSVKISFEDEPRKKYVDAETSL
With B2 the binding (DLG1-GFP) was “binds”.
